# Laboratory results as given in PubChem BioAssay AID2685 (National Center for Advancing Translational Sciences (NCATS), 2010).
# The list shows a part of the results. Shown are side measurements of this screen, not its main read-out; they come without a call. The list favours compounds with an active or inconclusive main result. The note in brackets gives the kind of curve behind each potency; many fits are weak.
# Assay: qHTS Assay for Lipid Storage Modulators in Drosophila S3 Cells;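 for cell number change: cells counted by Cell Tracker Red CMTPX staining in the red channel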
# Conditions: BODIPY lipid droplet fluorescence, 18-24 h; for cell number change: measured here: cell count max response, cells fed with added oleic acid
# Method in brief: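 Laser-scanning cytometry quantifies lipid droplet accumulation (500–530 nm total intensity; droplet/cell object ratio) in oleic acid-fed (400 uM added) Drosophila S3 cells treated with a concentration series. 20 uM Triacsin C defined 100% inhibition.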
# [1] = measured here: lipid fluorescence (Fed channel) AC50, cells fed with added oleic acid
# [2] = measured here: cell number channel AC50, cells fed with added oleic acid
SMILES,cell number change,AC50 [1],AC50 [2]
CC(C)(C)c1ccc(S(=O)(=O)Nc2cccc(C3OCCCO3)c2)cc1,5.91%,"0.259 µM [falling, full curve, poor fit]",–
O=C(O)c1cc(S(=O)(=O)N2CCCCC2)sc1Cl,-25.4%,"1.16 µM [falling, full curve, poor fit]",–
COc1ccccc1C1/C(=C(/O)c2ccc(OC(C)C)cc2)C(=O)C(=O)N1c1cc(C)on1 (configuration not stated),8.93%,–,–
COc1ccc(/C=C(\C#N)C(=O)Nc2cccc(C)n2)cc1,-6.85%,"0.291 µM [falling, full curve]",–
CCc1ccc(C2NC(c3ccc(CC)cc3)C([N+](=O)[O-])C(C)(C)C2[N+](=O)[O-])cc1 (configuration not stated),3.07%,"0.517 µM [rising, full curve, poor fit]",–
O=C(O)c1cccnc1Nc1ccc(Cl)cc1,4.15%,–,"0.461 µM [rising, single point]"
Cc1ccc(-c2cc(C(=O)Nc3c(C)n(C)n(-c4ccccc4)c3=O)no2)cc1,38.1%,–,"1.84 µM [rising, partial curve]"
CC(=O)Cc1nsc(NC(=O)c2ccc(-c3ccc(Cl)c(Cl)c3)o2)n1,–,–,"1.3 µM [rising, full curve]"
COc1ccc(CN2CC(C(=O)NCCCN3CCN(C)CC3)CC2=O)cc1 (configuration not stated),-26.6%,"6.51 µM [rising, single point]",–
CCCCN(C(=O)c1cc2c(s1)CCCCC2)c1c(N)n(CC(C)C)c(=O)[nH]c1=O,-1.28%,–,–
C=CCNC(=S)NNC(=O)CCC(O)CCCCC (configuration not stated),5.21%,"29.1 µM [rising, single point]","0.291 µM [rising, full curve]"
O=C(COC(=O)c1ccc(NS(=O)(=O)c2ccc(Br)s2)cc1)NC1CCCC1,28.8%,"16.4 µM [rising, partial curve]",–
COc1ccccc1N1CCN(C2CCCN(C(=O)c3ccccn3)C2)CC1 (configuration not stated),10.7%,–,–
Cc1c(Br)c(O)c(Br)c(O)c1/C=N/n1c(-c2ccccc2)n[nH]c1=S,-41.5%,–,"29.1 µM [falling, single point]"
CCn1c(N)c(C(=O)NC)sc1=S,-6.63%,"29.1 µM [falling, single point]",–
COc1ccc(S(=O)(=O)N2CCN(c3ccc(F)cc3)CC2)cc1OC,-11.3%,–,–
CCCCn1c(N)c(N(CC(C)C)C(=O)CC2CCCC2)c(=O)[nH]c1=O,2.81%,–,–
COc1ccc(Nc2c(-c3ccc(C)cc3)nc3cnccn23)cc1,–,"8.2 µM [rising, partial curve]","0.00411 µM [rising, full curve, poor fit]"
Brc1ccc(-c2nc(N/N=C/c3cccnc3)c3ccccc3n2)cc1,-64.3%,–,–
O=C(CSc1nnc2c(n1)[nH]c1ccc(F)cc12)Nc1ccccc1F,269%,–,–
CSc1ncccc1C(=O)OCC(=O)NCc1ccccc1,-8.03%,"0.517 µM [rising, full curve, poor fit]",–
CC1=C(C(=O)OCC(C)C)C2(O)C(=O)c3ccccc3C2(O)N1 (configuration not stated),-17.2%,"0.517 µM [falling, full curve, poor fit]","0.0731 µM [falling, full curve, poor fit]"
CCOC(=O)COc1cc(Br)c(C2NC(=O)NC(C)=C2C(C)=O)cc1OCC (configuration not stated),17%,"0.651 µM [falling, single point]",–

# Looked up above:
# In AC50 [1], `CCc1ccc(C2NC(c3ccc(CC)cc3)C([N+](=O)[O-])C(C)(C)C2[N+](=O)[O-])cc1` (configuration not stated) is listed with 0.517 µM [rising, full curve, poor fit]
# In AC50 [2], `Cc1ccc(-c2cc(C(=O)Nc3c(C)n(C)n(-c4ccccc4)c3=O)no2)cc1` is listed with 1.84 µM [rising, partial curve]

# Next compounds follow:

SMILES,cell number change,AC50 [1],AC50 [2]
COCCNC(=S)N(CCc1c(C)[nH]c2ccc(C)cc12)Cc1ccco1,23.1%,"0.184 µM [rising, full curve, poor fit]","0.411 µM [rising, full curve, poor fit]"
O=C(CN1CCN(S(=O)(=O)c2ccc(Br)cc2)CC1)Nc1ccc2c(c1)OCCO2,-8.63%,–,–
CCC1=NN(C(=O)c2ccc(Br)cc2)C(O)(c2ccc(C)cc2)C1 (configuration not stated),21.3%,–,–
O=Cc1coc2c(ccc3ccccc32)c1=O,0.472%,"6.51 µM [falling, single point]",–
CC(/C=C/c1ccccc1)NC(N)=O (configuration not stated),2.83%,"0.116 µM [falling, full curve]",–
Cc1ccc(CNC(=O)Cn2cccc2C(=O)c2ccccc2)cc1,-43.2%,–,"25.9 µM [falling, single point]"
Cc1ccc(Nc2nnns2)cc1,-10.9%,"29.1 µM [falling, single point]",–
CCCCn1c(SCc2nnc(-c3ccccc3)o2)nc2c1c(=O)n(C)c(=O)n2C,-23.3%,"20.6 µM [falling, single point]",–
O=C(CCCC(=O)N1CCc2ccccc21)N1CCc2ccccc21,30.1%,–,"18.4 µM [rising, single point]"
O=C(O)/C=C/c1cn(Cc2ccccc2)nc1-c1cccs1,-0.541%,"0.0058 µM [falling, full curve, poor fit]",–
O=C(NC(=S)Nc1ccccc1Cl)c1csnn1,7.35%,"2.31 µM [rising, partial curve]",–
CSc1ccc(Cl)c(C(=O)OCC(=O)N2CCN(c3ccccc3)CC2)c1,-0.107%,–,–
CCOC(=O)c1cnc(SC)nc1Oc1cccc(NS(=O)(=O)c2ccccc2)c1,-1.81%,"32.6 µM [falling, single point]",–
N#Cc1cnn(-c2cccc(Cl)c2)c1N,-10.3%,–,–
COc1cc(CN2CCCC(N3CCN(c4ccccc4C)CC3)C2)cc(Cl)c1O (configuration not stated),11.1%,–,–
O=C(NNC(=O)c1cccnc1)c1ccncc1,16.7%,–,–
O=C(Cn1nc(Cl)nc1Cl)Nc1ccccc1,-7.3%,–,–
CCCCNC(=O)/C(C#N)=C/c1cccnc1,–,"29.1 µM [falling, partial curve]",–
Cc1ccc(CN2C(=O)CCC2(C)C(=O)NCc2cccnc2)cc1 (configuration not stated),23%,–,"4.11 µM [rising, partial curve, poor fit]"
CCC(C)c1ccccc1NC(=O)C1CCCO1 (configuration not stated),11%,"4.11 µM [falling, partial curve]",–
O=C(NCCNC(=O)c1ccc(Br)o1)c1ccc(Br)o1,–,"29.1 µM [falling, single point]",–
Cc1ccc(NC(=O)c2ccc3ccccc3n2)nc1,138%,"13 µM [rising, partial curve]","9.2 µM [rising, partial curve]"
